The match of structure and compound is tentative.
Biological target: TTK (Homo sapiens, UniProt P33981)
Assay: TTK assay: screening of TTK kinase activity suppressing action using p38 MAPK peptide
Type: biochemical
Conditions: read-out: TTK IC50; p38 MAPK peptide substrate

Chains of the proteins cited; added tags and fusions are not shown.
UniProt P33981, whole entry: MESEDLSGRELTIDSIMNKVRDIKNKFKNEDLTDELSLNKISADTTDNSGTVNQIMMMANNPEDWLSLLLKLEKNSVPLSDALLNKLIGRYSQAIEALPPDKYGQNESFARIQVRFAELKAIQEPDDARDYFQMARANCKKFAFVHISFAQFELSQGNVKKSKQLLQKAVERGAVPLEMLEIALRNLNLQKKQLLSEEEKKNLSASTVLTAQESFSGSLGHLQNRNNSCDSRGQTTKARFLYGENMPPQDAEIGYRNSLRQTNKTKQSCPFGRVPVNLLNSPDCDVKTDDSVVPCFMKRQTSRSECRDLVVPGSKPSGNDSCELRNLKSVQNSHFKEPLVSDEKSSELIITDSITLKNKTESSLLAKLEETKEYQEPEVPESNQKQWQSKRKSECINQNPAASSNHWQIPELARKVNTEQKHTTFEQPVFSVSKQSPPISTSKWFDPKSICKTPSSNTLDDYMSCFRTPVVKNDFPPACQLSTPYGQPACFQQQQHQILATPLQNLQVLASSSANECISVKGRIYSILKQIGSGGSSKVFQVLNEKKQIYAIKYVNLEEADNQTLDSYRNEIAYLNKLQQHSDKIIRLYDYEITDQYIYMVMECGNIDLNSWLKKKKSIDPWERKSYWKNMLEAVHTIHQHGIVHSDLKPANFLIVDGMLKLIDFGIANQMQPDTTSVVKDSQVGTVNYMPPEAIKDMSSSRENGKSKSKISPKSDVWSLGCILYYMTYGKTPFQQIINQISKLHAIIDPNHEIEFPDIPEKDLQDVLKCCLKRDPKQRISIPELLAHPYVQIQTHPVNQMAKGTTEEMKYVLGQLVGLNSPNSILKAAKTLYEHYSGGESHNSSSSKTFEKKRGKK

- IC50: 29.4 nM
Compound: O=C(NC1CC1)c1ccc(-c2cnc3c(NCC4CCOCC4)cc(N4CCC(O)C4)nn23)cc1 (stereo not shown)

Reference: patent publication US20120059162A1, “FUSED IMIDAZOLE DERIVATIVE HAVING TTK INHIBITORY ACTION” (Oncotherapy Science, Inc., priority 2009, published 2012)
